One may read the viability as a read-out of living cells in per cent, often relative to untreated cells.

This is an account of results in PMC12040169 (PLOS Biology, 2025).

The nature of the data set: in vitro. To be noted: human, hela cells, % viability.

Turning to `CCN1CCN(C(=O)c2cc3ccccc3[nH]2)CC1` [CBK200247], the viability at 28.5 h, 10 µM worked out at 89.2%.

For the compound `O=C(c1cccc([N+](=O)[O-])c1)C12CN3CN(CN(C3)C1)C2` [CBK261142], the viability at 28.5 h, 10 µM was determined as 98.6%.

In the case of `Cc1ccccc1NC(=O)CCC(=O)N/N=C/c1cccnc1` [CBK261970], the viability at 28.5 h, 10 µM was determined as 90.7%.
